Screen size: about 53,000 sequences; about 3,700 (7%) were called active.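 Rule for the calls: active = gene knockdowns whose robust z-score for IL-1 alpha signal is at least 2 or at most -2, so actives lie on both sides; inactive = the rest.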 This is one part of the list.
Experiment: Components of the Cytosolic LPS Sensing Pathway: Gene Identification via Genome-wide siRNA Screen;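 note: robust z of the log signal after scaling to non-targeting control siRNA wells of the plate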
Conditions: RAW264.7 macrophages, IL-1a HTRF, actives lie on both sides, screened at 100 nM (by protocol), cells primed 5 h with Pam3CSK4 first
How it was run: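 Mouse macrophage line RAW264.7 is transfected with siRNA (100 nM final), grown 48h, primed with TLR ligand Pam3CSK4 5 h and given intracellular LipidA 24 h. IL-1a in supernatant is read by HTRF and viability by luminescence.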
In the case of GGACACAAGAGGCCAAUAATT against Ccdc63, the z-score is reported as inactive: -0.18. With CCAGUGAACUUUAUGGACUTT against Rexo4 the z-score was inactive: -0.581. For GGAAGUCUGUCCAAAGCAUTT against Olfr190, the z-score was inactive: 0.248. For GGGAGAAGAAGAUACACCATT against Usp47, the z-score was inactive: -0.513. In the case of GGCCUAUUAUACAGUGUAUTT against Anxa3, the z-score is reported as inactive: -0.398. For GGGAGACAAACUGAUCUCUTT against Olfr324, the z-score was inactive: -1.95. In the case of CUGGGUUACUUCACUAAGGTT against Psg26, the z-score is reported as inactive: 0.885. For GGCCAGUACUUUGCUAAACTT against Hnrnpa1, the z-score was inactive: 1.28. In the case of CCAGUAGCAGAUCAACUCATT against Mxd1, the z-score is reported as inactive: -1.94. With GGGCUUUUGGCUUCAUGACTT against Pcbd1 the z-score was inactive: -1.9. For GCCCAUAAACUGAUGGUGGTT against Tbc1d24, the z-score was inactive: -0.45. With GGACACCUCGAGAUUCUCUTT against Actl11 the z-score was inactive: -0.186. In the case of GCUUUUAACAUCGAGUAAUTT against Top2b, the z-score is reported as inactive: -0.627. In the case of GGCUUUUGAGCUGAUCUUGTT against Stmn2, the z-score is reported as inactive: -1.44. In the case of GGUCAUCAUGUCUCAUCAGTT against Olfr983, the z-score is reported as inactive: 0.492. With GCCACGAACAUGAUGUACATT against Slco3a1 the z-score was inactive: 0.229. In the case of GGGAUUUCACUUCUUAUCATT against Olfr781, the z-score is reported as inactive: -1.21. In the case of GCCCGGUUUGAAGAACAUATT against Ndufb9, the z-score is reported as inactive: 0.702. For GGGCACAAGAUCUAUAUAUTT against Anpep, the z-score was inactive: 0.517. In the case of GGCUGAAGAGAUUGUCAAUTT against Aars, the z-score is reported as inactive: -0.392. In the case of GCUAUGAAACAUGCCGGAGTT against Mrps21, the z-score is reported as inactive: -0.0108. For GGUAAUCUCCAAAAAACCATT against Lilra6, the z-score was inactive: -0.863. With GGAAAAGUACACAAAGACCTT against Nkx2-1 the z-score was active: 2.16. With GGACUACCGAGGUUUAACCTT against Snx22 the z-score was inactive: -0.0645. In the case of GCGCAUCAUCGAUUCUGCCTT against Sfn, the z-score is reported as inactive: -1.21. With GCUCGUUGACAAGAAGAGUTT against Bpifb5 the z-score was inactive: 1.02. With GGCUUUAGCAGAUGAGCGATT against Sptbn4 the z-score was inactive: -0.0568. In the case of GGUGUAUUGCAUCAUUUCUTT against Tmbim1, the z-score is reported as inactive: 0.981. In the case of GGCCAAAUUGCCAUCUGUUTT against Platr26, the z-score is reported as inactive: -1.35. For GGAAAUCAAUGCAUUGUCCTT against Fbn2, the z-score was inactive: -0.499. With GGGAAGACACUGGCUUCAGTT against Lepr the z-score was inactive: 0.957. For GGCAGCUAGAAAUUCACUCTT against Sntb1, the z-score was inactive: -0.988. With GCCAUAUUUACUAAGCAGATT against Plcl2 the z-score was inactive: 0.123. For CCUCCACCUAGAAUGUGACTT against Ghrhr, the z-score was inactive: -0.582. In the case of CGGAAUGUACACCUACUUUTT against Maneal, the z-score is reported as inactive: 0.154. In the case of GGCAAAUUUAUUUCAGGAATT against Naa16, the z-score is reported as inactive: -0.235. In the case of GCCCUAUUCCCAACUAUUCTT against Nefl, the z-score is reported as inactive: -0.481. In the case of GCAAAAUAACUGGGACUUGTT against Faf1, the z-score is reported as inactive: 1.41. For GGUGAACUCUUCACAUUUGTT against Fcer1a, the z-score was inactive: 1.55. In the case of GGAAUGUUUUCAUGACUGUTT against Ttc1, the z-score is reported as inactive: 0.778. With GGUCAUGGAUCAGAAAGAATT against Hnrnpd the z-score was inactive: 0.297. With CCCACCCAUCUAAUUUUUGTT against Gm266 the z-score was inactive: 0.152. With GGCCGUAUAACAGGACUUUTT against Cltb the z-score was inactive: -0.448. For GGUCAUCUAUCGUGUGCUGTT against Lamb2, the z-score was inactive: -0.619. For CGACUUGUAUCGUAUGGCUTT against Grm7, the z-score was inactive: -0.182. With CCCAGGACUCAUGAUUACATT against Tas2r134 the z-score was inactive: -0.646. For GCACACCUUUAAUAGCUAATT against Gcm1, the z-score was inactive: -0.791. With “CCUACACCCAAUUAAGAGUTT against F830005K03Rik” the z-score was inactive: -0.255. In the case of GCUUACAUUAAAGGAUAUGTT against Rab5c, the z-score is reported as active: 2.17. With CGAACGUGAUGAGUUAUGGTT against Vmn1r83 the z-score was active: -2.67. With GGAUGUGAUGACUCAUUUUTT against Zbtb8os the z-score was inactive: 0.976. With GGUCAUUGUUUAUGUCACATT against Sorcs3 the z-score was inactive: -0.496. With GCAGAUUAGAAGCUAGUAUTT against Rab27b the z-score was inactive: 0.677. For GGAGGUUUUCAUGGUUAUCTT against Nrgn, the z-score was inactive: 0.0293.

Source: PubChem BioAssay AID1508600 (Functional Genomics Laboratory (NCATS/FGL), 2020)
